Consider two substances from publication PMC12501846.

Chains of the proteins cited; added tags and fusions are not shown. Lines headed by an entry give the natural chain unless they say otherwise; changes in a name come on top.
UniProt P35222: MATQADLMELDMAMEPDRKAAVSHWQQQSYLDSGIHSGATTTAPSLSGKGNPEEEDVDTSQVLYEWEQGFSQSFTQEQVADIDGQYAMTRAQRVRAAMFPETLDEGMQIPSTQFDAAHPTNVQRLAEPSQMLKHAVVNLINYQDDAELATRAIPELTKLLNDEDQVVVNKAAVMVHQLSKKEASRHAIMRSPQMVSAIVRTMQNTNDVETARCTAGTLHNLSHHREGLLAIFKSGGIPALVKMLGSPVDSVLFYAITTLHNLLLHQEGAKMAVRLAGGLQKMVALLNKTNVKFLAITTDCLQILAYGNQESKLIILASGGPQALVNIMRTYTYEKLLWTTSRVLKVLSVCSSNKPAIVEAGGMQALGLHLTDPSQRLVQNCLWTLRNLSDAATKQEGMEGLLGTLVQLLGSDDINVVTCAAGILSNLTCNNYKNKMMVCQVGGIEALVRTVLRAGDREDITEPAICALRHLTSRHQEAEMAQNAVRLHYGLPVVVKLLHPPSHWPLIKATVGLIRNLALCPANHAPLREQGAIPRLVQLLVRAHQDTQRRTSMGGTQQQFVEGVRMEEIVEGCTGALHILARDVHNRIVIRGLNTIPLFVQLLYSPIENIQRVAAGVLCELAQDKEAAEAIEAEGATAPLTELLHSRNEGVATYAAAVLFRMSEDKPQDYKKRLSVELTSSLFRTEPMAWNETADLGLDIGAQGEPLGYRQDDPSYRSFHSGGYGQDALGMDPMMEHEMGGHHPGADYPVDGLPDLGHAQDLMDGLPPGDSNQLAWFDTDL

No constants are given. Whether binding was seen depends on the method and setting. Binding seen in cells or lysates may run through a third protein. Binding calls can cover weak binding; strength is not graded here. For some of these results: Tags and fused reporters may be left off the sequences shown.

For experiment [1], the target named is T1, Nanog fused to NanoLuc at its C-terminus (UniProt Q80Z64).
T1 sequence: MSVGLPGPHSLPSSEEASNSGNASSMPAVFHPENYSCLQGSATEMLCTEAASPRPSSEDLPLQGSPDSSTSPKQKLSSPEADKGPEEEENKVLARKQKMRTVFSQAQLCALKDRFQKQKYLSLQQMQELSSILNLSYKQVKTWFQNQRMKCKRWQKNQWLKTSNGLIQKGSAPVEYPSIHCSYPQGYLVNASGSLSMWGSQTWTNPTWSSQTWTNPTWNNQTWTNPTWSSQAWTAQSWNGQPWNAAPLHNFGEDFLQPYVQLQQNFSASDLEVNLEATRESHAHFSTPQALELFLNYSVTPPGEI
Nature of the experiment: FRET or BRET; NanoBRET in transfected HEK293T cells; NanoLuc-fused Nanog as donor, HaloTag-Ctnnb1 with NanoBRET 618 ligand as acceptor; 5 h at 37 °C in Opti-MEM.

In experiment [2] the target is T2, Nanog fused to NanoLuc at its N-terminus (UniProt Q80Z64).
T2 sequence: T1 sequence
The description is as above.

The target of experiment [3] is T3, Tcf3, endogenous (mouse (endogenous in ESCs)) (UniProt Q9Z1J1).
T3 sequence: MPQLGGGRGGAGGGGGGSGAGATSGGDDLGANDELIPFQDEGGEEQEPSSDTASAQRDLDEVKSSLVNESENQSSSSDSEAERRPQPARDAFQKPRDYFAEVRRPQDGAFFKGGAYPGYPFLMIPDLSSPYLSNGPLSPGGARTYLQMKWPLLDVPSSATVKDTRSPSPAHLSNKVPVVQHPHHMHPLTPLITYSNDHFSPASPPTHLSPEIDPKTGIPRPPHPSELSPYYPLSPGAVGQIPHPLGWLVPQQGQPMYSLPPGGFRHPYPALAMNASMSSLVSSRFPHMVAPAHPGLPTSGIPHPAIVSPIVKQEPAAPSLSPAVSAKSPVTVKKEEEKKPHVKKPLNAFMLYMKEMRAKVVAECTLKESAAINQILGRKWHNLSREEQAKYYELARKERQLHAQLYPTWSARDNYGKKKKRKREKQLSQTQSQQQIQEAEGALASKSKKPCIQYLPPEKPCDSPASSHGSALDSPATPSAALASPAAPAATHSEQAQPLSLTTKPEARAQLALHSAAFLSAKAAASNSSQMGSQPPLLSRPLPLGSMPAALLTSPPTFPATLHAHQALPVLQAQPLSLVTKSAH
The experiment can be described thus: co-IP; ESCs ectopically expressing Ctnnb1 S33Y, K49R or K49Q, followed by IP; binding to Nanog or Tcf3.

The target of experiment [4] is T4, Nanog, endogenous (mouse (endogenous in ESCs and EpiSCs)) (UniProt Q80Z64).
T4 sequence: T1 sequence
Described as above.

Consider “HaloTag-Ctnnb1 K49R (from UniProt P35222)”, for which the binding result in experiment [1] and in experiment [2] was “binds” in each case.

For the substance “HA-Ctnnb1 S33Y K49R (deacetylation mimic) (from UniProt P35222)”, the binding result in experiment [3] and in experiment [4] was “binds” in each case.
